# Results reported in the supplement of paper PMC10849652.
# The chains behind the UniProt entries cited, without tags or fusion partners. Where a name states a change or a piece, a line headed by the entry shows the natural chain unless it says otherwise.
# UniProt P31150: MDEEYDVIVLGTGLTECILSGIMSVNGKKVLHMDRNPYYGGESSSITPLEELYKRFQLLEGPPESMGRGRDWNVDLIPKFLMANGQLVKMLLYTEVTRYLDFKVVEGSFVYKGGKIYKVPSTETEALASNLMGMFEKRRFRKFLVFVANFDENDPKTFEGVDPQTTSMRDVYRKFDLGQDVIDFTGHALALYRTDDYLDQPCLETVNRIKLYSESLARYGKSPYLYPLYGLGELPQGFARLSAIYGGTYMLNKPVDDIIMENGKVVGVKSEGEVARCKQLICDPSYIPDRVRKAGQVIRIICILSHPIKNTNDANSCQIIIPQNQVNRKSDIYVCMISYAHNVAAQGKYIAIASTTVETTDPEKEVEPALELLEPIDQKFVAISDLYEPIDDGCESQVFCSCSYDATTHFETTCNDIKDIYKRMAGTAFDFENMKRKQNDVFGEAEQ
# UniProt P16383: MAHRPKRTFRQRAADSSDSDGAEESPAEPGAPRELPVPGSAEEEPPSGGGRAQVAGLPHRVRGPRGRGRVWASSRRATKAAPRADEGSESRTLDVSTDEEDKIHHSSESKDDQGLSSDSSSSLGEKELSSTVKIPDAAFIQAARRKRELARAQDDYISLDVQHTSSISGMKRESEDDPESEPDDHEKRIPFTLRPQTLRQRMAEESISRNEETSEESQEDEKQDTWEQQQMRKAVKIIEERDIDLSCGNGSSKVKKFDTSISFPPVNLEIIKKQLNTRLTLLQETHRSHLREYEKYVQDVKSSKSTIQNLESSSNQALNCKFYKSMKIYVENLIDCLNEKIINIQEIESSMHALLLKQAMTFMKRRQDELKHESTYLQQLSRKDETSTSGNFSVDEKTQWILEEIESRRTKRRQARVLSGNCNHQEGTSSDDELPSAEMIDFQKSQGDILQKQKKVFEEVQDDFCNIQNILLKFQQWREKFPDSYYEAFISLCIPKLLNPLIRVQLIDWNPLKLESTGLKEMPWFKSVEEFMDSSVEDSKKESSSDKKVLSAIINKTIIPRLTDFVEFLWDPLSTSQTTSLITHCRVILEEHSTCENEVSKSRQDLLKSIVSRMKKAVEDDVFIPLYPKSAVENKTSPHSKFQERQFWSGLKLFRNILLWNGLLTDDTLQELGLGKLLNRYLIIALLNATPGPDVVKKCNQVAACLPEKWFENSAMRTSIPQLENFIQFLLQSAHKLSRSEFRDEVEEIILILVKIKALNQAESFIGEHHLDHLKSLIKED
# UniProt Q86SR1: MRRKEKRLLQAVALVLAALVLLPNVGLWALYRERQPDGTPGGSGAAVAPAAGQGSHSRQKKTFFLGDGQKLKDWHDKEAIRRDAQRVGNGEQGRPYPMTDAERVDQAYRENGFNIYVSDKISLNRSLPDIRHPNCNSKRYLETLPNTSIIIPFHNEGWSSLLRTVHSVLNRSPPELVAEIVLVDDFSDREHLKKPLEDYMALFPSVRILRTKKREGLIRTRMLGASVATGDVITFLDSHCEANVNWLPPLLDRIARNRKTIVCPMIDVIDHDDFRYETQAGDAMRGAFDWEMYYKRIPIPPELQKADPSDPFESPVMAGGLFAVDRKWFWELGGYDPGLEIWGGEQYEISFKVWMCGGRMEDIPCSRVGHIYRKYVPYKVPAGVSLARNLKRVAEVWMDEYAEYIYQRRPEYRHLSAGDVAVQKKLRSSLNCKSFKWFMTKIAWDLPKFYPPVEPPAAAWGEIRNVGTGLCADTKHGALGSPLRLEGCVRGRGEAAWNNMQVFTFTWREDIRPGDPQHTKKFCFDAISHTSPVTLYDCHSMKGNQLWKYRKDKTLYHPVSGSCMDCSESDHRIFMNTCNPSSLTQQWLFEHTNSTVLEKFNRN
# UniProt Q06547, whole entry, looked up: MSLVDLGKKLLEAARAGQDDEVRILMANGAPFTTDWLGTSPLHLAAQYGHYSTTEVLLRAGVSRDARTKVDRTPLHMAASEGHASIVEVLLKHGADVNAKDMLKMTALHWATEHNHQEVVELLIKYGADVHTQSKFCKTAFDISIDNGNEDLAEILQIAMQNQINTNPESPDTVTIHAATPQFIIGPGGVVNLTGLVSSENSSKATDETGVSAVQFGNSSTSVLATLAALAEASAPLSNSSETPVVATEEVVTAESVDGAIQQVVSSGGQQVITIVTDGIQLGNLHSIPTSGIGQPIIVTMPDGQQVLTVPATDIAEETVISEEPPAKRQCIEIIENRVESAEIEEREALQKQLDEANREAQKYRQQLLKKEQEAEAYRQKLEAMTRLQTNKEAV
# UniProt Q8IWF2: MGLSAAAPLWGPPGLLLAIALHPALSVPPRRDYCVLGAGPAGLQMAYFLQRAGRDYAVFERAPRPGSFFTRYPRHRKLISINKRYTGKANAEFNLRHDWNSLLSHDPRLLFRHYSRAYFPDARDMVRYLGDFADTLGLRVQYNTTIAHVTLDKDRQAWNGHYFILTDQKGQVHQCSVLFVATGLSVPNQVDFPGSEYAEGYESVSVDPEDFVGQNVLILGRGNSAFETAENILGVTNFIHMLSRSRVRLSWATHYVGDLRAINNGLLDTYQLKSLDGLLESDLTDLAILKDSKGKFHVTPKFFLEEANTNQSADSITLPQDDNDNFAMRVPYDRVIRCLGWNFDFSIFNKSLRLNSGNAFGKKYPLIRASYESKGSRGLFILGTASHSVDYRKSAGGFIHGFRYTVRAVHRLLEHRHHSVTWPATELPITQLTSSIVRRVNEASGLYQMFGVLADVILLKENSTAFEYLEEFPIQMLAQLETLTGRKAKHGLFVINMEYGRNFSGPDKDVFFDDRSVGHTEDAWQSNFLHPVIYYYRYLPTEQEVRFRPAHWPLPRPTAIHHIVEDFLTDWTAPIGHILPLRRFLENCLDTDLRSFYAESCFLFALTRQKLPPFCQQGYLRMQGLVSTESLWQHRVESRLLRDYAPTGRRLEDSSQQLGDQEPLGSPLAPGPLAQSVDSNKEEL
# UniProt Q96QD9: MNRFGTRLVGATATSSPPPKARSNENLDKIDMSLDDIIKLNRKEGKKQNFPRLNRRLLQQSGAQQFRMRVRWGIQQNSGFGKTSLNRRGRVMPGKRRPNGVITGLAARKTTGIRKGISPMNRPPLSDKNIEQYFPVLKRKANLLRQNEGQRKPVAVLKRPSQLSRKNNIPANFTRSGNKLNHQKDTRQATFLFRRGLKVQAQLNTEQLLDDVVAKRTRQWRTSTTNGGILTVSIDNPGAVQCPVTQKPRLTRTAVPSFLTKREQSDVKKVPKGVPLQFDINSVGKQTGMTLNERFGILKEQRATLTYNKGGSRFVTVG
# UniProt O43716: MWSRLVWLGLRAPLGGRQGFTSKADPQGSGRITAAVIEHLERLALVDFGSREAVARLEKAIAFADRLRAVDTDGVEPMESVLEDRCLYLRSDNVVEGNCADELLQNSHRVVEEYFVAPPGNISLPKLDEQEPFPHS
# UniProt Q99988: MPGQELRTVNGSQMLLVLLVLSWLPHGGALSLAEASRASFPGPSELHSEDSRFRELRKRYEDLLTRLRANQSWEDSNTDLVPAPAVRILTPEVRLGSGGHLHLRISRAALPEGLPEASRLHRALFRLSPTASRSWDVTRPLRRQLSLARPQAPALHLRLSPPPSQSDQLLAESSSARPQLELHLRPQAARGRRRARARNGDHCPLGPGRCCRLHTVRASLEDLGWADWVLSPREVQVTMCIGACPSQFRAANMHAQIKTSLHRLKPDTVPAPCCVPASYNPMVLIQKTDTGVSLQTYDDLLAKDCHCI
# UniProt Q9HCG7: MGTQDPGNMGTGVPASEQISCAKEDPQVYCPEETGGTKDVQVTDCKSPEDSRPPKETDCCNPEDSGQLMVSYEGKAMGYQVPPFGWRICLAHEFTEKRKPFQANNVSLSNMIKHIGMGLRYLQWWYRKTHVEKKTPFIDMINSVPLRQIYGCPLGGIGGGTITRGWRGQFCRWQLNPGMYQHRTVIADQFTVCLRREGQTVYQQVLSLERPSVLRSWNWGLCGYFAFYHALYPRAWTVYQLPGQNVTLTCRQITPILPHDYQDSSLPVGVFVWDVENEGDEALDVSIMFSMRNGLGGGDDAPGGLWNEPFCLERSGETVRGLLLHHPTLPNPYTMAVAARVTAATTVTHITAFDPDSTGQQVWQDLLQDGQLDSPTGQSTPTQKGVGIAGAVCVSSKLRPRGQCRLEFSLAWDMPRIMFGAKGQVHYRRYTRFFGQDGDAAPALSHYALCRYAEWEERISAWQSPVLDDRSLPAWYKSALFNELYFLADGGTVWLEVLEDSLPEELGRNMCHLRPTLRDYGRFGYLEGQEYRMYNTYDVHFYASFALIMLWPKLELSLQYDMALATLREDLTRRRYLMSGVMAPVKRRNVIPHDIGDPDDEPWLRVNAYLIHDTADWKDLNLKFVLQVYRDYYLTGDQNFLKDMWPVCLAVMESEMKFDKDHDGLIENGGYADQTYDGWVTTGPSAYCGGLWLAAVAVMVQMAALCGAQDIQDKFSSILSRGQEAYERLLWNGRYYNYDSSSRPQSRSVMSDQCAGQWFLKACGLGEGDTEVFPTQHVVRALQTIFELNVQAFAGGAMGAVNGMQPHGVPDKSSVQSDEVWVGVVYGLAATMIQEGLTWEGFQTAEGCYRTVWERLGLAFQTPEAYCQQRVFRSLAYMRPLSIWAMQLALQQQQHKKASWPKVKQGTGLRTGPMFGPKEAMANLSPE
# UniProt P15976: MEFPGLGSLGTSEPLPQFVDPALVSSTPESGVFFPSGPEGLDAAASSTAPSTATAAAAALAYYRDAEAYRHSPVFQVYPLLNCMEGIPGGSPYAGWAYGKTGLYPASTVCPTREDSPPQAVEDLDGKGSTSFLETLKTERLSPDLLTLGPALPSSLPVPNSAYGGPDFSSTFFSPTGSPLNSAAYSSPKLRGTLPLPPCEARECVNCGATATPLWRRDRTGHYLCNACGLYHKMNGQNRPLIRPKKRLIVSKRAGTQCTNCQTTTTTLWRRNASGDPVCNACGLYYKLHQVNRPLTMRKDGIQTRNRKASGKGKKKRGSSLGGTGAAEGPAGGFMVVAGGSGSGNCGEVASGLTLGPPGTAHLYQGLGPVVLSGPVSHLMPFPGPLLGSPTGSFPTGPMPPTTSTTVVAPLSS
# UniProt P06241, whole entry, looked up: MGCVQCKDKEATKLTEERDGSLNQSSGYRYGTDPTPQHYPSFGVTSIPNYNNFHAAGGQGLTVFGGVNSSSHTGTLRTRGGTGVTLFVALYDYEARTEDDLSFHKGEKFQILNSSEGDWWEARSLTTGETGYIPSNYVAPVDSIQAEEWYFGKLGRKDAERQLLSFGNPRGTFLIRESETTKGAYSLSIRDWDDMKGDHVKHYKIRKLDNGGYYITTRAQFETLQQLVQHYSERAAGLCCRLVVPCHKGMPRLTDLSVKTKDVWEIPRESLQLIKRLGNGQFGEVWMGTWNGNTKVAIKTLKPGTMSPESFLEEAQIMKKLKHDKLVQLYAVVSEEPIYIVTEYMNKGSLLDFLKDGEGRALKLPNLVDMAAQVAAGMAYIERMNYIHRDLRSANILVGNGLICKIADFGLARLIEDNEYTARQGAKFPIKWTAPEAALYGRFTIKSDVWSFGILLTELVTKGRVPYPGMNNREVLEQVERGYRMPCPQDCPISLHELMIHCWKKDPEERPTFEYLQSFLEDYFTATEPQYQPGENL
# UniProt Q5VTD9: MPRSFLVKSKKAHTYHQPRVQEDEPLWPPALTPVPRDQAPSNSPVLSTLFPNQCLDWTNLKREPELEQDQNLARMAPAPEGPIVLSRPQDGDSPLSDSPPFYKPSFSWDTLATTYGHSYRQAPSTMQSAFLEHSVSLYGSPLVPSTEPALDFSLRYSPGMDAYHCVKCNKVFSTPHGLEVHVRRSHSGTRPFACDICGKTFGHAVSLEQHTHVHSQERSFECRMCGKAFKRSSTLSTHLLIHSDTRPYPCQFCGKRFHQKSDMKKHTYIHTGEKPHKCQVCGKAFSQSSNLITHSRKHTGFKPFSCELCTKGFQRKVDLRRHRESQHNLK
# UniProt Q8IVH2: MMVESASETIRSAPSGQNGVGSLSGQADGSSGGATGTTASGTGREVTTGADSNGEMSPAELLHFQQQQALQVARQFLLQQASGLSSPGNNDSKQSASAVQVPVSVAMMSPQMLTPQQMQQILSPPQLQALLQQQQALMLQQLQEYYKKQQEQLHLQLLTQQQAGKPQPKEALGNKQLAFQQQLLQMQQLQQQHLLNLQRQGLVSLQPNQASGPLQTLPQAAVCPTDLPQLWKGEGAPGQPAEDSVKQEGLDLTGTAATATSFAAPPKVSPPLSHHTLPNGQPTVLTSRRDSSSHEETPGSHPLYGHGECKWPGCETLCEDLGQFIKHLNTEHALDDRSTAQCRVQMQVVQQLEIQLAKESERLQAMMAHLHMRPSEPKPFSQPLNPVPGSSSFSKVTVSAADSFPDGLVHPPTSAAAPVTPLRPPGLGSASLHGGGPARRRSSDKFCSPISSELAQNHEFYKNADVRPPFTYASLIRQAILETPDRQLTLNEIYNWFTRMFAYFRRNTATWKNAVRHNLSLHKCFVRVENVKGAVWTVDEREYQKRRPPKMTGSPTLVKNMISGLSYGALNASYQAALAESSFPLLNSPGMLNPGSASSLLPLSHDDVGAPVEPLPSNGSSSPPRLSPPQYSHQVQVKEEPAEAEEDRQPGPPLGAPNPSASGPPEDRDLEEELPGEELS
# Some of the results follow.
# Tests used:
# Assay in all cases: log2 fold change, soluble protein after heating vs DMSO (PISA); higher = thermal stabilisation; K562 lysate, 10 uM; active = over 0.2 and 3.5 SD of the protein, either way, in both replicates (recomputed)
# erlotinib = compound: C#Cc1cccc(Nc2ncnc3cc(OCCOC)c(OCCOC)cc23)c1 [erlotinib]
# How it was run: (§1)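 Soluble protein was defined as the supernatant remaining after 21,000xg for 90 min, following pooling of heated aliquots and adjustment to 0.5% NP-40 at 4°C. Before that, crude K562 extract at 1 mg/mL protein in PBS pH 7.4 with 1 mM MgCl2 was treated with 10 μM compound for 30 min and heated for 3 min across 48°C-58°C. Quantification used TMTpro 16plex LC-MS/MS with channel sums equalised, and values are log-two fold changes in thermal stability relative to solvent controls from duplicates.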
# [1] = compound: C/C(=N\NC(=O)C1=CC(=CC=C1)S(=O)(=O)N2CCOCC2)/C3=C(C=CC(=C3)Cl)O
# How it was run: as §1
# [2] = compound: C1=CC(=CC=C1C2=NC3=C(N2)C=C(C=C3)C(=O)N)OC4=CC=C(C=C4)Cl
# How it was run: as §1
# [3] = compound: C1=CC2=C(C=CC(=C2)/C=C\3/C(=O)NC(=NCC4=CC=CS4)S3)N=C1
# How it was run: as §1
# [4] = compound: C1=CC2=NC=CN=C2C=C1/C=C/3\C(=O)NC(=O)S3
# How it was run: as §1
# [5] = compound: C1=CC=C(C=C1)C2=NC(=C(N2)C3=CC=NC=C3)C4=CC(=C(C=C4)Cl)O
# How it was run: as §1
# [6] = compound: C1=CC=C2C(=C1)C3=NNC4=CC=CC(=C43)C2=O
# How it was run: as §1
# [7] = compound: C1CCN(C1)C(=O)NC2=CC=CC(=C2)NC3=NC=C(C(=N3)NCCC4=CN=CN4)Br
# How it was run: as §1
# [8] = compound: C1CN(CCC1(CC2=CC=C(C=C2)Cl)N)C3=NC=NC4=C3C=CN4
# How it was run: as §1
# IRAK-1-4 Inhibitor I = compound: C1COCCN1CCN2C3=CC=CC=C3N=C2NC(=O)C4=CC(=CC=C4)[N+](=O)[O-] [IRAK-1-4 Inhibitor I]
# How it was run: as §1
# ibrutinib = compound: C=CC(=O)N1CCC[C@@H](n2nc(-c3ccc(Oc4ccccc4)cc3)c3c(N)ncnc32)C1 [ibrutinib]
# How it was run: as §1
# [9] = compound: CC(=O)c1cnc2ccc(-c3cc(Cl)c(O)c(Cl)c3)nc2c1N[C@H]1CC[C@H](CN(C)C)CC1
# How it was run: as §1
# ralimetinib = compound: CC(C)(C)Cn1c(N)nc2ccc(-c3[nH]c(C(C)(C)C)nc3-c3ccc(F)cc3)nc21 [ralimetinib]
# How it was run: as §1
# [10] = compound: CC(C)(O)CC(=O)NCCn1ccc2ncnc(Nc3ccc(Oc4cccc(C(F)(F)F)c4)c(Cl)c3)c21
# How it was run: as §1
# [11] = compound: CC(C)C1=C2N=C(C=C(N2N=C1)NCC3=CC=CC=C3)NCCCCCCN
# How it was run: as §1
# [12] = compound: CC1=C(C(CC(=O)N1)C2=CC=C(C=C2)C(F)(F)F)C(=O)NC3=C(C=C4C(=C3)C=NN4)F
# How it was run: as §1
# [13] = compound: CC1=C(C2=C(C=C1)C(=O)C3=CC=CC=C3N2CCCN)C
# How it was run: as §1
# [14] = compound: CC1=C(C=C(C=C1)NC(=O)C2=CC(=CC=C2)C(C)(C)C#N)NC3=CC4=C(C=C3)N=CN(C4=O)C
# How it was run: as §1
# [15] = compound: CC1=C(C=C(C=C1)NC(=O)C2=CC(=CC=C2)N(C)C)NC(=O)C3=CC=C(C=C3)O
# How it was run: as §1
# [16] = compound: CC1=CC=C(C=C1)SC2=C3C=C(SC3=CN=C2)C(=O)N
# How it was run: as §1
Target,log2 fold change (erlotinib),log2 fold change [1],log2 fold change [2],log2 fold change [3],log2 fold change [4],log2 fold change [5],log2 fold change [6],log2 fold change [7],log2 fold change [8],log2 fold change (IRAK-1-4 Inhibitor I),log2 fold change (ibrutinib),log2 fold change [9],log2 fold change (ralimetinib),log2 fold change [10],log2 fold change [11],log2 fold change [12],log2 fold change [13],log2 fold change [14],log2 fold change [15],log2 fold change [16]
GDI1 (UniProt P31150),inactive: -0.019,inactive: 0.041,inactive: -0.004,inactive: -0.012,inactive: 0.012,inactive: 0.002,inactive: 0.014,inactive: 0,inactive: -0.009,inactive: 0.011,inactive: -0.025,inactive: 0,inactive: 0.002,inactive: 0.005,inactive: -0.02,inactive: -0.021,inactive: -0.002,inactive: 0.004,inactive: -0.009,inactive: 0.01
GCFC2 (UniProt P16383),inactive: 0.049,inactive: -0.05,inactive: 0.012,inactive: -0.02,inactive: 0.016,inactive: -0.016,inactive: -0.025,inactive: 0,inactive: 0,inactive: 0.021,inactive: 0.052,inactive: 0.031,inactive: -0.016,inactive: -0.046,inactive: -0.095,inactive: 0.011,inactive: 0.007,inactive: -0.024,inactive: 0.016,inactive: -0.051
GBP2 (UniProt P32456),inactive: -0.063,,inactive: -0.022,,,inactive: -0.109,,inactive: -0.011,inactive: 0.009,inactive: 0,,inactive: 0.109,inactive: 0.015,inactive: -0.047,inactive: -0.092,,inactive: 0.099,inactive: 0.073,inactive: -0.062,inactive: 0.102
FURIN (UniProt P09958),inactive: -0.005,inactive: -0.05,inactive: 0.028,inactive: 0.012,inactive: -0.091,inactive: -0.01,inactive: -0.092,inactive: 0.102,inactive: -0.012,inactive: -0.027,inactive: 0.086,,inactive: -0.082,inactive: -0.102,inactive: 0.015,inactive: 0.162,inactive: -0.056,inactive: -0.136,inactive: 0.028,
GALNT10 (UniProt Q86SR1),inactive: 0.161,inactive: 0.075,inactive: 0.012,inactive: 0.123,inactive: -0.053,,inactive: -0.059,inactive: -0.058,inactive: -0.042,,inactive: -0.098,inactive: -0.053,,,inactive: 0.194,,inactive: 0,,,inactive: -0.017
GABPB1 isoform 3 (UniProt Q06547),inactive: -0.03,inactive: -0.042,inactive: -0.051,inactive: 0.016,inactive: 0.045,inactive: -0.048,inactive: -0.035,inactive: -0.032,inactive: 0.084,inactive: 0.078,inactive: 0.085,inactive: -0.027,inactive: 0.043,inactive: -0.068,inactive: 0.121,,inactive: 0.099,inactive: -0.051,inactive: -0.042,inactive: 0.03
FOXRED2 (UniProt Q8IWF2),inactive: -0.016,inactive: 0.073,inactive: -0.003,inactive: 0.027,,inactive: 0.031,inactive: -0.066,inactive: -0.204,inactive: 0.002,inactive: 0.055,,,inactive: 0.114,inactive: 0.014,inactive: -0.174,inactive: 0.029,inactive: -0.049,inactive: -0.035,inactive: -0.011,
FRMPD3 (UniProt Q5JV73),inactive: -0.043,inactive: 0.277,inactive: 0.269,inactive: 0.044,inactive: -0.063,inactive: -0.382,inactive: -0.162,,,inactive: -0.085,inactive: 0.005,inactive: -0.129,inactive: 0.101,inactive: -0.026,inactive: 0.052,inactive: -0.174,,,inactive: -0.014,inactive: -0.069
FYTTD1 (UniProt Q96QD9),inactive: 0.081,inactive: 0.236,inactive: -0.021,inactive: -0.101,inactive: 0,,inactive: 0.008,inactive: 0.245,inactive: 0.013,,inactive: -0.316,,,,inactive: -0.063,,inactive: -0.029,inactive: -0.068,,
GATC (UniProt O43716),inactive: 0.012,inactive: 0.076,inactive: -0.011,inactive: -0.017,,inactive: -0.086,inactive: 0.022,inactive: -0.067,inactive: 0.162,inactive: 0.012,,inactive: 0.048,inactive: 0.037,inactive: -0.004,inactive: -0.045,inactive: -0.038,inactive: -0.025,inactive: -0.082,inactive: 0.002,inactive: 0.148
GDF15 (UniProt Q99988),inactive: -0.067,inactive: 0.018,inactive: 0.082,inactive: 0.016,,inactive: 0.029,inactive: -0.056,,,inactive: -0.07,,,inactive: -0.003,inactive: 0.099,inactive: -0.002,inactive: -0.105,inactive: 0.068,inactive: 0.049,inactive: -0.027,
GBA2 (UniProt Q9HCG7),inactive: -0.088,,inactive: 0.063,,inactive: 0.035,inactive: -0.055,,inactive: 0.007,inactive: 0.041,inactive: 0.01,inactive: -0.071,inactive: -0.046,inactive: 0.082,inactive: -0.097,inactive: 0.042,inactive: -0.037,inactive: 0.077,inactive: 0.004,inactive: 0.08,inactive: 0.021
GATA1 (UniProt P15976),inactive: 0.031,,inactive: 0.003,,inactive: -0.006,inactive: 0.009,,,,inactive: 0.103,inactive: 0.041,inactive: -0.036,inactive: 0.01,inactive: 0.039,inactive: 0.094,inactive: 0.027,inactive: 0.021,inactive: -0.113,inactive: -0.013,inactive: 0.006
FYN (UniProt P06241),inactive: -0.028,inactive: 0.02,inactive: 0.025,inactive: 0.028,inactive: -0.062,inactive: 0.058,inactive: 0.092,inactive: 0.132,inactive: -0.018,inactive: -0.145,active: 0.79,inactive: 0.046,inactive: 0.09,inactive: -0.13,inactive: 0.003,,inactive: -0.042,inactive: -0.069,inactive: 0.052,inactive: 0.021
GDAP1 (UniProt Q8TB36),inactive: 0.074,inactive: -0.002,inactive: 0.002,inactive: -0.115,inactive: -0.021,inactive: -0.154,inactive: -0.221,inactive: 0.24,inactive: -0.087,inactive: 0.125,inactive: -0.003,inactive: -0.022,inactive: 0.127,inactive: -0.157,inactive: -0.101,,inactive: 0.065,inactive: -0.025,inactive: 0.079,inactive: -0.001
GFI1B (UniProt Q5VTD9),inactive: -0.19,,inactive: -0.133,,,inactive: 0.069,,,,inactive: 0.023,,inactive: -0.184,inactive: -0.07,inactive: 0.001,inactive: -0.172,inactive: -0.189,inactive: -0.122,inactive: -0.057,inactive: 0.07,inactive: -0.104
FRMD8 (UniProt Q9BZ67),inactive: -0.074,inactive: -0.053,inactive: 0.038,inactive: 0.016,inactive: 0.004,,inactive: 0.008,inactive: 0.149,inactive: 0.011,,inactive: 0.136,,,,inactive: -0.035,inactive: 0.12,inactive: 0,inactive: 0.11,,
FOXP4 (UniProt Q8IVH2),inactive: 0.107,inactive: 0.122,inactive: -0.024,inactive: 0.189,inactive: 0.005,inactive: 0.005,inactive: -0.064,inactive: -0.099,inactive: -0.048,inactive: -0.004,inactive: -0.1,,inactive: 0.039,inactive: -0.006,inactive: 0.09,inactive: 0.04,inactive: -0.186,,inactive: 0.138,
FRMPD2 (UniProt Q68DX3),inactive: 0,inactive: 0.064,inactive: 0.114,inactive: -0.072,,,inactive: -0.092,inactive: -0.085,inactive: -0.056,,,inactive: -0.099,,,inactive: -0.337,inactive: -0.008,,,,inactive: 0.009

# Some of the entries so far, as tab-separated lines:
Target	log2 fold change (erlotinib)	log2 fold change [1]	log2 fold change [2]	log2 fold change [3]	log2 fold change [4]	log2 fold change [5]	log2 fold change [6]	log2 fold change [7]	log2 fold change [8]	log2 fold change (IRAK-1-4 Inhibitor I)	log2 fold change (ibrutinib)	log2 fold change [9]	log2 fold change (ralimetinib)	log2 fold change [10]	log2 fold change [11]	log2 fold change [12]	log2 fold change [13]	log2 fold change [14]	log2 fold change [15]	log2 fold change [16]
FYTTD1 (UniProt Q96QD9)	inactive: 0.081	inactive: 0.236	inactive: -0.021	inactive: -0.101	inactive: 0		inactive: 0.008	inactive: 0.245	inactive: 0.013		inactive: -0.316				inactive: -0.063		inactive: -0.029	inactive: -0.068		
GATC (UniProt O43716)	inactive: 0.012	inactive: 0.076	inactive: -0.011	inactive: -0.017		inactive: -0.086	inactive: 0.022	inactive: -0.067	inactive: 0.162	inactive: 0.012		inactive: 0.048	inactive: 0.037	inactive: -0.004	inactive: -0.045	inactive: -0.038	inactive: -0.025	inactive: -0.082	inactive: 0.002	inactive: 0.148
